Experimental data taken from paper PMC8930229.
Results are given in words; binding and its absence hold for the method and conditions named. In cells and extracts the contact can be indirect. Some results given as binding are weak or reduced against the parent protein; the word gives no strength.

Biological target: T1, TRAF2 (human (endogenous in THP-1)) (UniProt Q12933)
T1 sequence: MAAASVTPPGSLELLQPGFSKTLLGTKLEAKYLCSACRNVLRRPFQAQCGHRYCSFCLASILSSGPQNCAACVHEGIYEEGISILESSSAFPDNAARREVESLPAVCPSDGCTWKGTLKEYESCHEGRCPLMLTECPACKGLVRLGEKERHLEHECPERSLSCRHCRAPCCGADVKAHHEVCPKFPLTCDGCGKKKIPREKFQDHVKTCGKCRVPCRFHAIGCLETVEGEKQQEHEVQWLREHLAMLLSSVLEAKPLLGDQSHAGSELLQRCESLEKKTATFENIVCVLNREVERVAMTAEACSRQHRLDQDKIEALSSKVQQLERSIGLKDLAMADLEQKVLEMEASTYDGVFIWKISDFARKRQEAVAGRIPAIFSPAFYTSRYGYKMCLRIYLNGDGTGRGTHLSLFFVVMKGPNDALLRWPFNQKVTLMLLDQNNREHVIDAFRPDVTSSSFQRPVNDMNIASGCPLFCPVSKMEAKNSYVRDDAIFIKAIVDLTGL
Assay: co-IP; lysates of THP-1 macrophage-derived foam cells; incubated with antibodies plus protein A/G beads overnight, separated by SDS-PAGE; which antibody precipitated and which detected is not told

With “Tripartite motif-containing 37 (TRIM37) (from UniProt O94972-1 1-964)” the binding was “binds”.
